Measured values from the supplement of paper PMC12823440, “Inhibitors supercharge kinase turnover through native proteolytic circuits” (Nature, 2025).
Where a name gives a salt, the structure may show the parent alone. The list shows a part of the results. Hit calls seldom repeat between salt and free forms of one compound.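 Kinases were expressed as nanoluciferase fusions in K562 cells and luminescence was read every 4 h between 2 and 18 h as percent of control, DMSO set to 100% and a positive control to 0%. A time point counts as decreased when the signal drops significantly (2 sigma). The hit call is the authors' own, does not follow from the count of time points alone, and its rule is not shown.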

Sequences of proteins named here, by UniProt entry; tags and fusion partners are left off. A change or cut given only in a name is not applied to a line headed by its entry.
UniProt P00519, whole entry: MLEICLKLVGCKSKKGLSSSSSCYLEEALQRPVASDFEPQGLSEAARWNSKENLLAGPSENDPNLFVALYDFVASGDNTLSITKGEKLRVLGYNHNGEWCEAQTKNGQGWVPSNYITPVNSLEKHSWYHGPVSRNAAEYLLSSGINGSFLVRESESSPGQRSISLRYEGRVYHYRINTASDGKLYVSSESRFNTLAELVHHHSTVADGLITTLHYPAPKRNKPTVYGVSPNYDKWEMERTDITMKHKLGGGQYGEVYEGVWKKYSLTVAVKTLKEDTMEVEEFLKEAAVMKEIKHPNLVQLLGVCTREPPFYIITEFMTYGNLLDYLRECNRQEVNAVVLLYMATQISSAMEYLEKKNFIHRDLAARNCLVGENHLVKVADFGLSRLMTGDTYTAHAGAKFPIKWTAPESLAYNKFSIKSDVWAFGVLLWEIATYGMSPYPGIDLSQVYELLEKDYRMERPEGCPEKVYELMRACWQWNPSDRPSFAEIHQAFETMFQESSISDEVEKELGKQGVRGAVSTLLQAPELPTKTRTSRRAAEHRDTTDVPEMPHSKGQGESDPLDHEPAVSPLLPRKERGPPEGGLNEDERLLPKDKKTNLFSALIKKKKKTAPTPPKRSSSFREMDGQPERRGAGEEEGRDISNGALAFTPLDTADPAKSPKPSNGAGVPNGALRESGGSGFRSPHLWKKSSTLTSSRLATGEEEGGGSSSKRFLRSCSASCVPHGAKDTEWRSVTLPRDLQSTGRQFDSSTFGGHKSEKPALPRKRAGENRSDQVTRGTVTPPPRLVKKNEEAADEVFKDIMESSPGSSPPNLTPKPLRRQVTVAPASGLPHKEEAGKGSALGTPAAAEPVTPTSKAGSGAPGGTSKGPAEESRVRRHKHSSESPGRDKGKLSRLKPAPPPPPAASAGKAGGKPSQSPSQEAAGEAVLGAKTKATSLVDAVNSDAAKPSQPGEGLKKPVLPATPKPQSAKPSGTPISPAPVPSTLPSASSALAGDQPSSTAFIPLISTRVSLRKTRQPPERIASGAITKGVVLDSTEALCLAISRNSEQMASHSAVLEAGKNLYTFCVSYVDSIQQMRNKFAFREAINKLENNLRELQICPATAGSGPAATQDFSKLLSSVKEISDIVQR
UniProt P31749: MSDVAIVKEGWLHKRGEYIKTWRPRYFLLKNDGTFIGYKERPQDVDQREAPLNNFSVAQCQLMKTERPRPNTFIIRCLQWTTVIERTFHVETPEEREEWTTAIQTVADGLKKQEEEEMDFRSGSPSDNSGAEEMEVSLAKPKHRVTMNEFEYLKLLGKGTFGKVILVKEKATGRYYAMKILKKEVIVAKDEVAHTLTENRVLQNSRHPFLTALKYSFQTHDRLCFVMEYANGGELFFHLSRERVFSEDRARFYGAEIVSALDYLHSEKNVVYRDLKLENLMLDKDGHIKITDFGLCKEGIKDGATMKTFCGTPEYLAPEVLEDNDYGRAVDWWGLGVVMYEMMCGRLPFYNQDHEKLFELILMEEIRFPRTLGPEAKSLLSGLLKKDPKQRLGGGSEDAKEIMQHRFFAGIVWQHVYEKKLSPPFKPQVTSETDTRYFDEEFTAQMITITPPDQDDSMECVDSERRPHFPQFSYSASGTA
UniProt Q9UM73: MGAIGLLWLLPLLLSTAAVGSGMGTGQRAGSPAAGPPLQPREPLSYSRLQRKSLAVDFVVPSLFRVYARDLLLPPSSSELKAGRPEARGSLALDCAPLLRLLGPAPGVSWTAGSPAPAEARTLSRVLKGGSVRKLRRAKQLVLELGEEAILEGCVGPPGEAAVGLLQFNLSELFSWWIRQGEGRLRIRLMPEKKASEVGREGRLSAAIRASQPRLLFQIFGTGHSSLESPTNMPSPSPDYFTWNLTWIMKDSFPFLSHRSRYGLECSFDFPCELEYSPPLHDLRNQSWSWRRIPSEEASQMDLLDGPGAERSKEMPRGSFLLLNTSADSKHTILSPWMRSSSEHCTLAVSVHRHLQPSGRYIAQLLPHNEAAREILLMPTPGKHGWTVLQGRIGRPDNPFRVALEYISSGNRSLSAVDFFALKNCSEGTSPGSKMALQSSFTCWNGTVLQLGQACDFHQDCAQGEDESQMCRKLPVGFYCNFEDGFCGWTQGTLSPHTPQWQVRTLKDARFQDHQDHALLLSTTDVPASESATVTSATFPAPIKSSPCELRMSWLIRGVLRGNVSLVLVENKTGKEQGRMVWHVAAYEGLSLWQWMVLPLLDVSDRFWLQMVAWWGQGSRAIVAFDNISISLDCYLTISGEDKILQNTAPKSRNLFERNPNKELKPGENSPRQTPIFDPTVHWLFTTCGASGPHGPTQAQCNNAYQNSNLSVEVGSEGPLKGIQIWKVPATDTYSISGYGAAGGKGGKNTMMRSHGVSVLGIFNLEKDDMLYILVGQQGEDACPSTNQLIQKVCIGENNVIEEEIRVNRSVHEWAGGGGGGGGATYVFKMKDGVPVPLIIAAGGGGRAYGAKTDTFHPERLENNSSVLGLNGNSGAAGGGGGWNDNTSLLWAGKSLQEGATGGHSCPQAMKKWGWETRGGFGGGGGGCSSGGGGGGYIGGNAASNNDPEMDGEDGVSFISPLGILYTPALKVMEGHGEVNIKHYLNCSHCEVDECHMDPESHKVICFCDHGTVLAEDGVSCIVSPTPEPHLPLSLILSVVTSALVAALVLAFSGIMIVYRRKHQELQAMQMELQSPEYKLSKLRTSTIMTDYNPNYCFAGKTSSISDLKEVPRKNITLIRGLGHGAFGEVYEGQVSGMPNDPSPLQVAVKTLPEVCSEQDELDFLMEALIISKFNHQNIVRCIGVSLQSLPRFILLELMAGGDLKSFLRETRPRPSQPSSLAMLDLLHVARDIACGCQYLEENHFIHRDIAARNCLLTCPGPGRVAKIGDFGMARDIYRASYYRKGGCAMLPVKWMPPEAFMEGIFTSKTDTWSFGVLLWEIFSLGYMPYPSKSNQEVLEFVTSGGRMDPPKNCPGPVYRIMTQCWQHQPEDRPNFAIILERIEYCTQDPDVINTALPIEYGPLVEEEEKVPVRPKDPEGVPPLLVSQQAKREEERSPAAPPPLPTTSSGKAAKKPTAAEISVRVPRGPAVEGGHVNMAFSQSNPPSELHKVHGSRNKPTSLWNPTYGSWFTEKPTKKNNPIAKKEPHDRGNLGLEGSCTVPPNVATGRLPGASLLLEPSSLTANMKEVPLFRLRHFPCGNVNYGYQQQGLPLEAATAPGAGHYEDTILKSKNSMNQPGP
UniProt O14965: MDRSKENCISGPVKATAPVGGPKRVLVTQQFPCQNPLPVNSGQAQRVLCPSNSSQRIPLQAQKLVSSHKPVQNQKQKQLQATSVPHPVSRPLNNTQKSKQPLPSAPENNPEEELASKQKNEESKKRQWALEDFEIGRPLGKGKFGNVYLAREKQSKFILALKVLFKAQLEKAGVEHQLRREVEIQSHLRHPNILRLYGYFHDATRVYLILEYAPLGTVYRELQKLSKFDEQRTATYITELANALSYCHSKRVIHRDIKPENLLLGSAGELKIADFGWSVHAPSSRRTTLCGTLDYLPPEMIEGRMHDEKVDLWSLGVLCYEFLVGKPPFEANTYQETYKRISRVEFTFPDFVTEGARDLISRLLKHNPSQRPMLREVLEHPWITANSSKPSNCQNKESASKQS
UniProt Q96GD4, whole entry: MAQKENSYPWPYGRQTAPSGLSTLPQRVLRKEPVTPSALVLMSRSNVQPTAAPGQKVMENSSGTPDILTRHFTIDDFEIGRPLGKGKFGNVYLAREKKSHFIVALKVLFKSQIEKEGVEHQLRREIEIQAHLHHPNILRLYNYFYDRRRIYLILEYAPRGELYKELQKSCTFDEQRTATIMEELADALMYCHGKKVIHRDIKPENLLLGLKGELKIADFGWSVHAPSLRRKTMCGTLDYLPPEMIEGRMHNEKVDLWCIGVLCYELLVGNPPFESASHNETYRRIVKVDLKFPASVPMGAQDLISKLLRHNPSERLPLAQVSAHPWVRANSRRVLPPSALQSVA
UniProt P15056, whole entry, looked up: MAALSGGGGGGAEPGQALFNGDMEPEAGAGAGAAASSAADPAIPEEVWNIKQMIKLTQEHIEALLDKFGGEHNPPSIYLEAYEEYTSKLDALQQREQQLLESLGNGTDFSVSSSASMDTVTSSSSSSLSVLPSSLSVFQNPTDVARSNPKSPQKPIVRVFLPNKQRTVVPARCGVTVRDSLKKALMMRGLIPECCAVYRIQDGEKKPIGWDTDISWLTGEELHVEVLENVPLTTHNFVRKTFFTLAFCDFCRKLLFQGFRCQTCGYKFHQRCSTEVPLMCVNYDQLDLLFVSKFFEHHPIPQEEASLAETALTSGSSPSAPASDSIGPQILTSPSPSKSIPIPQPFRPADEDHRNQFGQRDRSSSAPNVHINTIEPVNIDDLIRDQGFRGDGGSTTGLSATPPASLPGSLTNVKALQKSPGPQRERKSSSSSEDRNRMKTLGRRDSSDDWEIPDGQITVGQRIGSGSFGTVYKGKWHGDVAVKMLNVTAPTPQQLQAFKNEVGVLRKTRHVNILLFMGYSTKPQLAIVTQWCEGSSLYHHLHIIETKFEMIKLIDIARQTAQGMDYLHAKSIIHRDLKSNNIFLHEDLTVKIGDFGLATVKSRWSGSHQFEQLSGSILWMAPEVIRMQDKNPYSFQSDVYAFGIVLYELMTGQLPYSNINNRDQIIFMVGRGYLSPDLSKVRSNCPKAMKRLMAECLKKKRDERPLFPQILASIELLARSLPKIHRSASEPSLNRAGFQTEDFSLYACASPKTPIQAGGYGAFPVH
UniProt Q13555: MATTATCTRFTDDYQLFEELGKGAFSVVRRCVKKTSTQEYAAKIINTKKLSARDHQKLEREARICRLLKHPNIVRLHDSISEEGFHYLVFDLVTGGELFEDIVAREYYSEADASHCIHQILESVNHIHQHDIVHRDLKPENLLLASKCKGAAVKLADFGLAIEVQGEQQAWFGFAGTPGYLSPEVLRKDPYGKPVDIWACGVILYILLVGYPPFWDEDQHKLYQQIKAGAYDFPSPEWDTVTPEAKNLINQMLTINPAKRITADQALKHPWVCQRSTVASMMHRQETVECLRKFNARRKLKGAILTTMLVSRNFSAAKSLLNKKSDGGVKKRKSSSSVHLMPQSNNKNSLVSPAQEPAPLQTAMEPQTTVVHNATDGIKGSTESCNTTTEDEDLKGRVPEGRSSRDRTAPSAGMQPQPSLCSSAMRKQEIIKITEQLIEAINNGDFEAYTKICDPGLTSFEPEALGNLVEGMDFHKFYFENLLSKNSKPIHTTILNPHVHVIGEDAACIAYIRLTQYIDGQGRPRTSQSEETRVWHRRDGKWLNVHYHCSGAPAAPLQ
UniProt Q15131: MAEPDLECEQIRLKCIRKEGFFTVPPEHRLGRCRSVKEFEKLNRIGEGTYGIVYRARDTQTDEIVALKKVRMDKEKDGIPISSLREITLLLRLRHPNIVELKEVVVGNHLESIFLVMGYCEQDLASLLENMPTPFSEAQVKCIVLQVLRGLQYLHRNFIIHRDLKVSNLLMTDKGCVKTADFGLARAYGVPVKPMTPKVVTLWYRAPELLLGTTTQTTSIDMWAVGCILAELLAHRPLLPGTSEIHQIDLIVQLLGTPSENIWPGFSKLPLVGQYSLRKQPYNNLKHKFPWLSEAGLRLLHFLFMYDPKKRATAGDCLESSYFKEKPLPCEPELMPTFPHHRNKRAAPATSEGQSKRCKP
UniProt Q00526: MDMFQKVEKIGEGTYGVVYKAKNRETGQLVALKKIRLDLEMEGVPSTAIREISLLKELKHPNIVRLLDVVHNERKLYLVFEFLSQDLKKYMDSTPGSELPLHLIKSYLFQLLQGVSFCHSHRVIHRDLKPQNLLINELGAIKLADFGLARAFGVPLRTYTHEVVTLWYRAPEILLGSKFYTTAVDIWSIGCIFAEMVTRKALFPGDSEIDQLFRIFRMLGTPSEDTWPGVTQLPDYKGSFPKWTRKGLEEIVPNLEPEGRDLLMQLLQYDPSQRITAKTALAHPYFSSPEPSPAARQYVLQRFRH
UniProt P11802: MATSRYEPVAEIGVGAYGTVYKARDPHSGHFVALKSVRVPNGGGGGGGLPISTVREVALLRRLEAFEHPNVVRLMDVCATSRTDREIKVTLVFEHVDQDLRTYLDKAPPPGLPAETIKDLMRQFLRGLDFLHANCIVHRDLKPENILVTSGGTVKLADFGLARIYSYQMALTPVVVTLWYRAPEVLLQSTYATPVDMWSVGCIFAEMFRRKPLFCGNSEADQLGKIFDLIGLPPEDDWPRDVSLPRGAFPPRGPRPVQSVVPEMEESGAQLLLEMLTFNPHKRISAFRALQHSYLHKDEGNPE
UniProt Q00535, whole entry, looked up: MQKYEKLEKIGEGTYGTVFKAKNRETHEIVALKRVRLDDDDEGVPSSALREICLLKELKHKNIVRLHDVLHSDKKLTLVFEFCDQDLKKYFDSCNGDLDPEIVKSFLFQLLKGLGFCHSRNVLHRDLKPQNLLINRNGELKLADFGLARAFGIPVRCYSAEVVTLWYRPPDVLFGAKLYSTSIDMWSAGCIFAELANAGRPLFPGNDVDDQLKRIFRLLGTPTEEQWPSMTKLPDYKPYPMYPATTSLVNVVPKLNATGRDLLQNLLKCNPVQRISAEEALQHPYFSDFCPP

What was measured:
Test in all cases: kinase-Nluc reporter destabilization hit call (1 = scored as downregulated) (binary); higher = compound decreases kinase abundance
Settings in all cases: K562; 2-18 h
[1] = biological target: ABL1 (UniProt P00519)
[2] = biological target: AKT1 (UniProt P31749)
[3] = biological target: ALK (UniProt Q9UM73)
[4] = biological target: ARAF (UniProt P10398)
[5] = biological target: AURKA (UniProt O14965)
[6] = biological target: AURKB (UniProt Q96GD4)
[7] = biological target: AURKC (UniProt Q9UQB9)
[8] = biological target: BLK (UniProt P51451)
[9] = biological target: BMX (UniProt P51813)
[10] = biological target: BRAF (UniProt P15056)
[11] = tested on: BRAF_V600E
[12] = biological target: BTK (UniProt Q06187)
[13] = biological target: CAMK2A (UniProt Q9UQM7)
[14] = biological target: CAMK2G (UniProt Q13555)
[15] = biological target: CDK10 (UniProt Q15131)
[16] = biological target: CDK2 (UniProt P24941)
[17] = biological target: CDK3 (UniProt Q00526)
[18] = biological target: CDK4 (UniProt P11802)
[19] = biological target: CDK5 (UniProt Q00535)
[20] = biological target: CDK6 (UniProt Q00534)

Measured: kinase-Nluc reporter destabilization hit call

Cc1[nH]c(/C=C2\C(=O)Nc3ccc(F)cc32)c(C)c1C(=O)N[C@H]1CCN(C(=O)N(C)C)C1 [Vorolanib] (10 µM)
inactive: [1] 0 | [2] 0 | [3] 0 | [4] 0 | [5] 0 | [6] 0 | [7] 0 | [8] 0 | [9] 0 | [10] 0 | [11] 0 | [12] 0 | [13] 0 | [14] 0 | [15] 0 | [16] 0 | [17] 0 | [18] 0 | [19] 0 | [20] 0

CC#CC(=O)Nc1ccc2ncnc(Nc3cccc(Br)c3)c2c1 (10 µM)
inactive: [1] 0 | [2] 0 | [3] 0 | [4] 0 | [5] 0 | [6] 0 | [7] 0 | [8] 0 | [9] 0 | [10] 0 | [11] 0 | [12] 0 | [13] 0 | [14] 0 | [15] 0 | [16] 0 | [17] 0 | [18] 0 | [19] 0 | [20] 0

COCCNc1nc2ccc(C#CC3(O)CCCCC3)cc2n1-c1ccnc(N)n1 (10 µM)
inactive: [1] 0 | [2] 0 | [3] 0 | [4] 0 | [5] 0 | [6] 0 | [7] 0 | [8] 0 | [9] 0 | [10] 0 | [11] 0 | [12] 0 | [13] 0 | [14] 0 | [15] 0 | [16] 0 | [17] 0 | [18] 0 | [19] 0 | [20] 0

CN1CCN(c2cccc(Nc3nc4c(-c5ccc(S(C)(=O)=O)cc5)cccn4n3)c2)CC1 (10 µM)
inactive: [1] 0 | [2] 0 | [3] 0 | [4] 0 | [5] 0 | [6] 0 | [7] 0 | [8] 0 | [9] 0 | [10] 0 | [11] 0 | [12] 0 | [13] 0 | [14] 0 | [15] 0 | [16] 0 | [17] 0 | [18] 0 | [19] 0 | [20] 0

NC(=O)c1nc(Nc2ccccc2)sc1NC(=O)C1CCCCC1 (10 µM)
inactive: [1] 0 | [2] 0 | [3] 0 | [4] 0 | [5] 0 | [6] 0 | [7] 0 | [8] 0 | [9] 0 | [10] 0 | [11] 0 | [12] 0 | [13] 0 | [14] 0 | [15] 0 | [16] 0 | [17] 0 | [18] 0 | [19] 0 | [20] 0

CCN1CCC(n2cc(CNc3cc(Cl)c4ncc(C#N)c(Nc5ccc(F)c(Cl)c5)c4c3)nn2)CC1 [Cot inhibitor-2] (2.5 µM)
inactive: [1] 0 | [2] 0 | [3] 0 | [4] 0 | [5] 0 | [6] 0 | [7] 0 | [8] 0 | [9] 0 | [10] 0 | [11] 0 | [12] 0 | [13] 0 | [14] 0 | [15] 0 | [16] 0 | [17] 0 | [18] 0 | [19] 0 | [20] 0

COc1ccc(-c2ccc3c(N4CCOCC4)nc(N4C[C@@H](C)O[C@@H](C)C4)nc3n2)cc1CO (2.5 µM)
inactive: [1] 0 | [2] 0 | [3] 0 | [4] 0 | [5] 0 | [6] 0 | [7] 0 | [8] 0 | [9] 0 | [10] 0 | [11] 0 | [12] 0 | [13] 0 | [14] 0 | [15] 0 | [16] 0 | [17] 0 | [18] 0 | [19] 0 | [20] 0

O=C(N/N=C/c1coc2ccccc2c1=O)c1cccnc1 (10 µM)
inactive: [1] 0 | [2] 0 | [3] 0 | [4] 0 | [5] 0 | [6] 0 | [7] 0 | [8] 0 | [9] 0 | [10] 0 | [11] 0 | [12] 0 | [13] 0 | [14] 0 | [15] 0 | [16] 0 | [17] 0 | [18] 0 | [19] 0 | [20] 0

CN1CCC(c2cc(-c3ccncc3)c(-c3ccc(F)cc3)[nH]2)CC1 (10 µM)
inactive: [1] 0 | [2] 0 | [3] 0 | [4] 0 | [5] 0 | [6] 0 | [7] 0 | [8] 0 | [9] 0 | [10] 0 | [11] 0 | [12] 0 | [13] 0 | [14] 0 | [15] 0 | [16] 0 | [17] 0 | [18] 0 | [19] 0 | [20] 0

c1ccc(-c2[nH]ncc2-c2ccnc3ccccc23)nc1 (10 µM)
inactive: [1] 0 | [2] 0 | [3] 0 | [4] 0 | [5] 0 | [6] 0 | [7] 0 | [8] 0 | [9] 0 | [10] 0 | [11] 0 | [12] 0 | [13] 0 | [14] 0 | [15] 0 | [16] 0 | [17] 0 | [18] 0 | [19] 0 | [20] 0

Cc1cccc(-c2[nH]ncc2-c2ccc(F)c(-c3cnn(CCO)c3)c2)n1 (10 µM)
inactive: [1] 0 | [2] 0 | [3] 0 | [4] 0 | [5] 0 | [6] 0 | [7] 0 | [8] 0 | [9] 0 | [10] 0 | [11] 0 | [12] 0 | [13] 0 | [14] 0 | [15] 0 | [16] 0 | [17] 0 | [18] 0 | [19] 0 | [20] 0

O=C(CSC1=NCCN1)NC1CCCCCC1 [ICCB-19 (hydrochloride)] (2.5 µM)
inactive: [1] 0 | [2] 0 | [3] 0 | [4] 0 | [5] 0 | [6] 0 | [7] 0 | [8] 0 | [9] 0 | [10] 0 | [11] 0 | [12] 0 | [13] 0 | [14] 0 | [15] 0 | [16] 0 | [17] 0 | [18] 0 | [19] 0 | [20] 0

Nc1ncnc2c1c(-c1ccc(Oc3ccccc3)cc1)nn2C1CCCC1 (2.5 µM)
inactive: [1] 0 | [2] 0 | [3] 0 | [4] 0 | [5] 0 | [6] 0 | [7] 0 | [8] 0 | [9] 0 | [10] 0 | [11] 0 | [12] 0 | [13] 0 | [14] 0 | [15] 0 | [16] 0 | [17] 0 | [18] 0 | [19] 0 | [20] 0

Cc1cc2ncc(-c3ccc(O)c(O)c3)nc2cc1C [Tyrphostin AG1433] (10 µM)
inactive: [1] 0 | [2] 0 | [3] 0 | [4] 0 | [5] 0 | [6] 0 | [7] 0 | [8] 0 | [9] 0 | [10] 0 | [11] 0 | [12] 0 | [13] 0 | [14] 0 | [15] 0 | [16] 0 | [17] 0 | [18] 0 | [19] 0 | [20] 0

C=CC(=O)Nc1cccc(Nc2nc(Nc3ccc(NC4CN(CCF)C4)cc3OC)ncc2C(F)(F)F)c1 (2.5 µM)
inactive: [1] 0 | [2] 0 | [3] 0 | [4] 0 | [5] 0 | [6] 0 | [7] 0 | [8] 0 | [9] 0 | [10] 0 | [11] 0 | [12] 0 | [13] 0 | [14] 0 | [15] 0 | [16] 0 | [17] 0 | [18] 0 | [19] 0 | [20] 0

Nc1nc2ccc(Cl)cc2c2nc(-c3ccco3)nn12 (10 µM)
inactive: [1] 0 | [2] 0 | [3] 0 | [4] 0 | [5] 0 | [6] 0 | [7] 0 | [8] 0 | [9] 0 | [10] 0 | [11] 0 | [12] 0 | [13] 0 | [14] 0 | [15] 0 | [16] 0 | [17] 0 | [18] 0 | [19] 0 | [20] 0

FC(F)(c1ccc2ncccc2c1)c1nnc2ccc(-c3ccncc3)nn12 (10 µM)
inactive: [1] 0 | [2] 0 | [3] 0 | [4] 0 | [5] 0 | [6] 0 | [7] 0 | [8] 0 | [9] 0 | [10] 0 | [11] 0 | [12] 0 | [13] 0 | [14] 0 | [15] 0 | [16] 0 | [17] 0 | [18] 0 | [19] 0 | [20] 0

3 structures already listed, arranged by SMILES length, rising:
Nc1nc2ccc(Cl)cc2c2nc(-c3ccco3)nn12 (10 µM)
inactive: [1] 0 | [2] 0 | [3] 0 | [4] 0 | [5] 0 | [6] 0 | [7] 0 | [8] 0 | [9] 0 | [10] 0 | [11] 0 | [12] 0 | [13] 0 | [14] 0 | [15] 0 | [16] 0 | [17] 0 | [18] 0 | [19] 0 | [20] 0

Nc1ncnc2c1c(-c1ccc(Oc3ccccc3)cc1)nn2C1CCCC1 (2.5 µM)
inactive: [1] 0 | [2] 0 | [3] 0 | [4] 0 | [5] 0 | [6] 0 | [7] 0 | [8] 0 | [9] 0 | [10] 0 | [11] 0 | [12] 0 | [13] 0 | [14] 0 | [15] 0 | [16] 0 | [17] 0 | [18] 0 | [19] 0 | [20] 0

FC(F)(c1ccc2ncccc2c1)c1nnc2ccc(-c3ccncc3)nn12 (10 µM)
inactive: [1] 0 | [2] 0 | [3] 0 | [4] 0 | [5] 0 | [6] 0 | [7] 0 | [8] 0 | [9] 0 | [10] 0 | [11] 0 | [12] 0 | [13] 0 | [14] 0 | [15] 0 | [16] 0 | [17] 0 | [18] 0 | [19] 0 | [20] 0

Later entries

O=C(Nc1cn[nH]c1-c1ccccn1)c1nn(C2CCNCC2)cc1Cl (10 µM)
inactive: [1] 0 | [2] 0 | [3] 0 | [4] 0 | [5] 0 | [6] 0 | [7] 0 | [8] 0 | [9] 0 | [10] 0 | [11] 0 | [12] 0 | [13] 0 | [14] 0 | [15] 0 | [16] 0 | [17] 0 | [18] 0 | [19] 0 | [20] 0
